# Test results: the supplement of paper PMC12823440, “Inhibitors supercharge kinase turnover through native proteolytic circuits” (Nature, 2025)
# Chains of the proteins cited; added tags and fusions are not shown.
# UniProt P53350, whole entry: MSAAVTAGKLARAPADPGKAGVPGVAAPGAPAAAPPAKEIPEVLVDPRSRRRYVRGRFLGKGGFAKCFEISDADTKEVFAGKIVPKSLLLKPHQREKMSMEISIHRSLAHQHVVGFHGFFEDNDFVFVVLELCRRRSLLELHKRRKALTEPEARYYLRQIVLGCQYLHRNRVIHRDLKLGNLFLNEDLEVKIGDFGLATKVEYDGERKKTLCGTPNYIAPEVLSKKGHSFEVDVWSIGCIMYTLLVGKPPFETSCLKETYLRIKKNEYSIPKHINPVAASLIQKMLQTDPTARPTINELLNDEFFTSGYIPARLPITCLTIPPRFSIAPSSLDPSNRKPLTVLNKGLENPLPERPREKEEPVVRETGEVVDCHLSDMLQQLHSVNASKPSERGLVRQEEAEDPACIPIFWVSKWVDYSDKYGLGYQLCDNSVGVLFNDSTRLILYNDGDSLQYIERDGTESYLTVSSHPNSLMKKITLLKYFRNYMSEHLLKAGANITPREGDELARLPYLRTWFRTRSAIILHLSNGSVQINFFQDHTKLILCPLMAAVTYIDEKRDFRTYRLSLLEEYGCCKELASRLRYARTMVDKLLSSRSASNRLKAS
# Counter-ions that a name gives are not always drawn. The list shows a part of the results. The calls rarely recur for the same compound in another form.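 Kinases, fused to nanoluciferase, were expressed in K562 cells; luminescence was measured every 4 h from 2 to 18 h as percent of control (DMSO = 100%, positive control = 0%). A time point is decreased if signal falls significantly (2 sigma). Hits were called by the authors by a rule that is not shown; the count of time points alone does not decide it.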
# Target: PLK1 (UniProt P53350)
# Assay: number of time points (of 5) at which kinase-Nluc abundance scored as decreased, DMSO-normalised (count); higher = more persistent destabilization
# Details: K562; 2-18 h
row,SMILES,number of time points
1,Cc1cc(=O)oc2c(C=O)c(O)ccc12 (10 µM),0
2,Nc1nc(F)nc2c1ncn2[C@@H]1O[C@H](CO)[C@@H](O)[C@@H]1O [Fludarabine] (10 µM),0
3,CC(C)(C)c1cc(O)ccc1O (10 µM),0
4,COc1ccc(Cl)c(Nc2nc3ccccc3nc2NS(=O)(=O)c2cccc(NC(=O)C(C)(C)N)c2)c1 [Pilaralisib] (10 µM),0
5,Cc1ccc(CNc2ncnc3ccc(-c4ccc(CO)o4)cc23)o1 (10 µM),0
6,C=CC(=O)Nc1cccc(Nc2nc(Nc3ccc(N4CCN(C(C)=O)CC4)cc3OC)ncc2C(F)(F)F)c1 [Rociletinib] (10 µM),0
7,Nc1ncnc2c1c(-c1cccc(OCc3ccccc3)c1)cn2C1CC(CN2CCC2)C1 (stereo not drawn) (2.5 µM),0
8,Oc1cc(O)c2cc(O)c(-c3cc(O)c(O)c(O)c3)[o+]c2c1 [Delphinidin (chloride)] (10 µM),1
9,CCCS(=O)(=O)Nc1ccc(F)c(C(=O)c2c[nH]c3ncc(-c4ccc(Cl)cc4)cc23)c1F [Vemurafenib] (10 µM),0
10,COCCNc1nc2ccc(C#CC3(O)CCCCC3)cc2n1-c1ccnc(N)n1 (10 µM),0
11,CCC(C)N1c2ccccc2C(=O)N(C)c2cnc(Nc3ccc(C(=O)N4CCC(N5CCN(C)CC5)CC4)cc3OC)nc21 (stereo not drawn) (2.5 µM),0
12,Cc1cc(CN2CCN(c3c(Br)cnc4nc(-c5ccc(N6CCN(C)CC6)cc5)[nH]c34)CC2)no1 (2.5 µM),0
13,O=C(CSC1=NCCN1)NC1CCCCCC1 [ICCB-19 (hydrochloride)] (2.5 µM),0
14,FC(F)(F)c1ccc(CNc2ccc(Cc3c[nH]c4ncccc34)cn2)cc1 (10 µM),0
15,c1ccc(-c2[nH]ncc2-c2ccnc3ccccc23)nc1 (10 µM),0
16,CC#CC(=O)N1CC[C@@H](n2c(=O)n(-c3ccc(Oc4ccccc4)cc3)c3c(N)ncnc32)C1 [Tirabrutinib (hydrochloride)] (10 µM),0
17,CC1=C(C(=O)O)N2C(=O)[C@@H](NC(=O)[C@H](N)C3=CCC=CC3)[C@H]2SC1 [Cephradine] (10 µM),0

row,SMILES,number of time points
1,Cn1cc(-c2ccc3nnc(Sc4ccc5ncccc5c4)n3n2)cn1 (10 µM),0
2,CC(=O)c1c(C)cc2cccc(O)c2c1O [Nepodin] (10 µM),0
3,NCCNS(=O)(=O)c1cccc2c(Cl)cccc12 [A-3 (hydrochloride)] (10 µM),0
4,N#Cc1c(C2CCNCC2)cc(-c2c(O)cccc2OCC2CC2)nc1N [ACHP (Hydrochloride)] (10 µM),0
5,C[C@@H]1COCCN1c1cc(C2([S@@](C)(=N)=O)CC2)nc(-c2ccnc3[nH]ccc23)n1 [(S)-Ceralasertib] (10 µM),0
6,NC(=O)c1nc(Nc2ccccc2)sc1NC(=O)C1CCCCC1 (10 µM),0
7,Cc1cc(Nc2ncnc3ccc(NC4=NC(C)(C)CO4)cc23)ccc1Oc1ccn2ncnc2c1 [Tucatinib (hemiethanolate)] (2.5 µM),0
8,Cc1ccc(C(=O)Nc2ccc(Oc3cc4cnn(C)c4cc3-c3cn[nH]c3)c(F)c2)c(=O)n1-c1ccc(F)cc1 [Merestinib dihydrochloride] (2.5 µM),0
9,O=C1Nc2ccc(C(=O)c3ccco3)cc2C1=Cc1cc(Cl)c(O)c(Cl)c1 (2.5 µM),4
10,C=CC(=O)Nc1cc(Nc2ncc(Cl)c(-c3c[nH]c4ccccc34)n2)c(OC)cc1N(C)CCN(C)C [Mutant EGFR inhibitor] (2.5 µM),0
11,C[C@@H](c1ccc(-c2ccccc2)c(F)c1)c1cc(NC(=N)N2CCOCC2)on1 [Rimacalib] (10 µM),0
12,Cn1nccc1Nc1nccc(-c2ccn([C@H](CO)c3ccc(Cl)c(F)c3)c(=O)c2)n1 [Ravoxertinib hydrochloride] (10 µM),0
13,Oc1cc2c(cc1O)C(Cc1cccc3ccccc13)NCC2 (stereo not drawn) (10 µM),0
14,O=C1N[C@@H](Cc2c[nH]c3ccccc23)C(=O)N2CCC[C@@H]12 [Brevianamide F] (10 µM),0
15,CCS(=O)(=O)Nc1ccc2[nH]c(O)c(C(=Nc3ccc(CN4CCCCC4)cc3)c3ccccc3)c2c1 [Hesperadin] (2.5 µM),0
16,O=C1NC(=O)/C(=C/c2ccc3nccnc3c2)S1 (10 µM),0

# A portion of the results above:
row,SMILES,number of time points
2,CC(=O)c1c(C)cc2cccc(O)c2c1O [Nepodin] (10 µM),0
3,NCCNS(=O)(=O)c1cccc2c(Cl)cccc12 [A-3 (hydrochloride)] (10 µM),0
4,N#Cc1c(C2CCNCC2)cc(-c2c(O)cccc2OCC2CC2)nc1N [ACHP (Hydrochloride)] (10 µM),0
5,C[C@@H]1COCCN1c1cc(C2([S@@](C)(=N)=O)CC2)nc(-c2ccnc3[nH]ccc23)n1 [(S)-Ceralasertib] (10 µM),0
6,NC(=O)c1nc(Nc2ccccc2)sc1NC(=O)C1CCCCC1 (10 µM),0
7,Cc1cc(Nc2ncnc3ccc(NC4=NC(C)(C)CO4)cc23)ccc1Oc1ccn2ncnc2c1 [Tucatinib (hemiethanolate)] (2.5 µM),0
8,Cc1ccc(C(=O)Nc2ccc(Oc3cc4cnn(C)c4cc3-c3cn[nH]c3)c(F)c2)c(=O)n1-c1ccc(F)cc1 [Merestinib dihydrochloride] (2.5 µM),0
